These are literature values, as cited in US4546076A, “Enzymatic process for the determination of beta-lactam antibiotics” (U C B Societe Anonyme, priority 1982, dated 1985).

The subject of the data set is soluble exocellular D-alanyl-D-alanine-carboxypeptidase (enzyme R 39). Conditions: about 20 μl milk samples, 3 picomols of soluble enzyme R 39, less than one hour; cited from earlier work.

As to `CC1(C)S[C@@H]2[C@H](NC(=O)Cc3ccccc3)C(=O)N2[C@H]1C(=O)O` [penicillin G, benzylpenicillin], the “concentration determined qualitatively by the visual method” value is recorded as “more than 0.09 I.U./ml” and the “lowest concentration determined quantitatively (spectrophotometer)” value was 0.02 I.U./ml.
